Measured values: publication PMC12276012, “Molecular mechanisms of biomolecular condensate formation in Drosophila melanogaster siRNA biogenesis”
Construct, isoform or probe ends are uncertain for at least one entry. For part of these data: A weaker result is weaker than the reference pair of the same experiment. Tags and fusion partners may be left off the protein sequences shown. For part of these data: At least one verdict rests on a figure or table, not on a statement of the authors.

Tests used:
[1] = system: T1, Loqs-PD deltaC (Drosophila melanogaster); test: NMR titration; settings: 100 uM protein, up to 1:0.25 RNA, 50 and 150 mM NaCl; NMR: 20 mM sodium phosphate pH 6.5, PS-I or PS-II buffer (50-500 mM NaCl), 292 K for Loqs-PD deltaC; recombinant protein; protein details: tag cleaved
T1 sequence (looked up, limits assumed): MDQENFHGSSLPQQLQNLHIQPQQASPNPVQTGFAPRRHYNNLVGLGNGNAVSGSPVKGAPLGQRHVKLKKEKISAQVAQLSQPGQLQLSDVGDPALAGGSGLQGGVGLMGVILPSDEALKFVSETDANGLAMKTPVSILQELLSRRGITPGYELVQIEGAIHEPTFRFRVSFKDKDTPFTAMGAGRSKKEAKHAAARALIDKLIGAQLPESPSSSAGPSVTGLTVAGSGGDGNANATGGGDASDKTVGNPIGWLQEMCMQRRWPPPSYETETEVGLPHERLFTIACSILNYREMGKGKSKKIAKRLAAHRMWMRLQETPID

[2] = system: T2, Loqs-PD N-term (Drosophila melanogaster); test: NMR titration; settings: 100 uM protein, 25 uM RNA, PS-I buffer, weak binding at low salt; NMR: 20 mM sodium phosphate pH 6.5, PS-I or PS-II buffer (50-500 mM NaCl), 292 K for Loqs-PD deltaC; recombinant protein; protein details: tag cleaved
T2 sequence (looked up, limits assumed): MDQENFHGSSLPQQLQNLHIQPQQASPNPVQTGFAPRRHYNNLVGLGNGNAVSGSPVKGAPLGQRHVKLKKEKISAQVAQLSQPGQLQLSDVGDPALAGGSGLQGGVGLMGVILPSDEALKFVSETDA

[3] = system: T3, Loqs-PD WT (full length) (Drosophila melanogaster); test: EMSA; settings: 400 nM RNA, 100-3200 nM protein; 3' pCp-Cy5 ligated (adds one C); EMSA: 20 mM sodium phosphate pH 6.5, 150 mM NaCl, 15% glycerol, 15 min, 1% agarose 1x TBE; recombinant protein; residues 1-359; protein details: His6-GB1 or His6 tag, cleaved by TEV; label: 3' Cy5
T3 sequence (looked up): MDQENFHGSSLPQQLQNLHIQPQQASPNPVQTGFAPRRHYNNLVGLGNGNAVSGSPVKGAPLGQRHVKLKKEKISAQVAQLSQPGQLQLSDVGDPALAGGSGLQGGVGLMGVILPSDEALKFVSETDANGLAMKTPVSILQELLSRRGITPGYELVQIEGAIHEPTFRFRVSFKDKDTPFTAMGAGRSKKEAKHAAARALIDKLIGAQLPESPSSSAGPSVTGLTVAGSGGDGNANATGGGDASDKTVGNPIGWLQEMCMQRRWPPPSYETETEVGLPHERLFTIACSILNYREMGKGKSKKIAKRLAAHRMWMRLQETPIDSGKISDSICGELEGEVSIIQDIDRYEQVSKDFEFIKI

Sequence	binding result [1]	binding result [2]	binding result [3]
GGAGCUUUCAAAAUGAUCUCCGUGAGGAGAUCAUUUUGAAAGCUCC [21 bp hairpin dsRNA]	binds	binds more weakly	
GGAGCUUUCAAAAUGAUCUCCGUGAGGAGAUCAUUUUGAAAGCUCC [21 bp hairpin dsRNA, Cy5]			binds
